What all share (experiment): pull-down; 100 µg of each purified protein conjugated to 25 µL NHS-activated agarose; mixed with lysate (1 mL of 1 mg protein/mL) of 293-F cells expressing ROS1, overnight at 4 °C, washed three times with lysis buffer; immunoblot with anti-Rho1D4; only the target purified
Background: Immunoblotting shows a protein as a band on a membrane.

The chains behind the UniProt entries cited, without tags or fusion partners. Residues count along the entry.
UniProt Q99435, residues 22-816: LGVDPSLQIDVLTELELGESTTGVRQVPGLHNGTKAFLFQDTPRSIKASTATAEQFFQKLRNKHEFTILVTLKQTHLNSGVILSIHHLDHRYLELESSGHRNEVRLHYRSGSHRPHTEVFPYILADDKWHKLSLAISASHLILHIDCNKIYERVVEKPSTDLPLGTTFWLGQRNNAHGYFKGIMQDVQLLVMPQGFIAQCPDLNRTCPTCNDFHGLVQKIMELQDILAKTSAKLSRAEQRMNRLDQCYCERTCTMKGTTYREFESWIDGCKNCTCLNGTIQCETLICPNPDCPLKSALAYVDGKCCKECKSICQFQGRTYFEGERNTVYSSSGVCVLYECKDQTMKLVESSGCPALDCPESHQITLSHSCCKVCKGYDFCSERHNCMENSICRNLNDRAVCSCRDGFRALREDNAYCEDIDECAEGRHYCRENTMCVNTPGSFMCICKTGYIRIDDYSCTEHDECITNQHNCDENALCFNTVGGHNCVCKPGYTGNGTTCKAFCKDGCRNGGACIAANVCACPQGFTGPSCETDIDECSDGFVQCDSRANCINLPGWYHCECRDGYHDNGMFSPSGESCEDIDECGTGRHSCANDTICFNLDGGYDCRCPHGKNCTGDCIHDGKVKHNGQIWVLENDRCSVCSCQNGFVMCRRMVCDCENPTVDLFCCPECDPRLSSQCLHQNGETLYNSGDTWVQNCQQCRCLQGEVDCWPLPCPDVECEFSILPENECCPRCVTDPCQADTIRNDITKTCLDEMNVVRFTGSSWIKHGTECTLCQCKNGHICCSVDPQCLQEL
UniProt P02769, residues 25-607: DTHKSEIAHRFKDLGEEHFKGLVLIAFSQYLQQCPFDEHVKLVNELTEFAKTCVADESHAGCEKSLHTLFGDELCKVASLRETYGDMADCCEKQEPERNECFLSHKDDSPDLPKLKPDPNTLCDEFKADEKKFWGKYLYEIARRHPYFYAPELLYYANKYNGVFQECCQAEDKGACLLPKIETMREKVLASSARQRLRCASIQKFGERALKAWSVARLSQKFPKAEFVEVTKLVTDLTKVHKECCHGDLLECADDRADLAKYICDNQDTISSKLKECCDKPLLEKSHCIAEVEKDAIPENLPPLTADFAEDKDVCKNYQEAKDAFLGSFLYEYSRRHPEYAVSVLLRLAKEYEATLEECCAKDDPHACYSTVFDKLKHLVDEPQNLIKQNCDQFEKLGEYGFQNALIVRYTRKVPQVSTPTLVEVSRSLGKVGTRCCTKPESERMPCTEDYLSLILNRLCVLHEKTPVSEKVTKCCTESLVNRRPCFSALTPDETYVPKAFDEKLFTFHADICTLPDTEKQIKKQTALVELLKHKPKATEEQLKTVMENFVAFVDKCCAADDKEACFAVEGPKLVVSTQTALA
UniProt P08922, residues 28-1859: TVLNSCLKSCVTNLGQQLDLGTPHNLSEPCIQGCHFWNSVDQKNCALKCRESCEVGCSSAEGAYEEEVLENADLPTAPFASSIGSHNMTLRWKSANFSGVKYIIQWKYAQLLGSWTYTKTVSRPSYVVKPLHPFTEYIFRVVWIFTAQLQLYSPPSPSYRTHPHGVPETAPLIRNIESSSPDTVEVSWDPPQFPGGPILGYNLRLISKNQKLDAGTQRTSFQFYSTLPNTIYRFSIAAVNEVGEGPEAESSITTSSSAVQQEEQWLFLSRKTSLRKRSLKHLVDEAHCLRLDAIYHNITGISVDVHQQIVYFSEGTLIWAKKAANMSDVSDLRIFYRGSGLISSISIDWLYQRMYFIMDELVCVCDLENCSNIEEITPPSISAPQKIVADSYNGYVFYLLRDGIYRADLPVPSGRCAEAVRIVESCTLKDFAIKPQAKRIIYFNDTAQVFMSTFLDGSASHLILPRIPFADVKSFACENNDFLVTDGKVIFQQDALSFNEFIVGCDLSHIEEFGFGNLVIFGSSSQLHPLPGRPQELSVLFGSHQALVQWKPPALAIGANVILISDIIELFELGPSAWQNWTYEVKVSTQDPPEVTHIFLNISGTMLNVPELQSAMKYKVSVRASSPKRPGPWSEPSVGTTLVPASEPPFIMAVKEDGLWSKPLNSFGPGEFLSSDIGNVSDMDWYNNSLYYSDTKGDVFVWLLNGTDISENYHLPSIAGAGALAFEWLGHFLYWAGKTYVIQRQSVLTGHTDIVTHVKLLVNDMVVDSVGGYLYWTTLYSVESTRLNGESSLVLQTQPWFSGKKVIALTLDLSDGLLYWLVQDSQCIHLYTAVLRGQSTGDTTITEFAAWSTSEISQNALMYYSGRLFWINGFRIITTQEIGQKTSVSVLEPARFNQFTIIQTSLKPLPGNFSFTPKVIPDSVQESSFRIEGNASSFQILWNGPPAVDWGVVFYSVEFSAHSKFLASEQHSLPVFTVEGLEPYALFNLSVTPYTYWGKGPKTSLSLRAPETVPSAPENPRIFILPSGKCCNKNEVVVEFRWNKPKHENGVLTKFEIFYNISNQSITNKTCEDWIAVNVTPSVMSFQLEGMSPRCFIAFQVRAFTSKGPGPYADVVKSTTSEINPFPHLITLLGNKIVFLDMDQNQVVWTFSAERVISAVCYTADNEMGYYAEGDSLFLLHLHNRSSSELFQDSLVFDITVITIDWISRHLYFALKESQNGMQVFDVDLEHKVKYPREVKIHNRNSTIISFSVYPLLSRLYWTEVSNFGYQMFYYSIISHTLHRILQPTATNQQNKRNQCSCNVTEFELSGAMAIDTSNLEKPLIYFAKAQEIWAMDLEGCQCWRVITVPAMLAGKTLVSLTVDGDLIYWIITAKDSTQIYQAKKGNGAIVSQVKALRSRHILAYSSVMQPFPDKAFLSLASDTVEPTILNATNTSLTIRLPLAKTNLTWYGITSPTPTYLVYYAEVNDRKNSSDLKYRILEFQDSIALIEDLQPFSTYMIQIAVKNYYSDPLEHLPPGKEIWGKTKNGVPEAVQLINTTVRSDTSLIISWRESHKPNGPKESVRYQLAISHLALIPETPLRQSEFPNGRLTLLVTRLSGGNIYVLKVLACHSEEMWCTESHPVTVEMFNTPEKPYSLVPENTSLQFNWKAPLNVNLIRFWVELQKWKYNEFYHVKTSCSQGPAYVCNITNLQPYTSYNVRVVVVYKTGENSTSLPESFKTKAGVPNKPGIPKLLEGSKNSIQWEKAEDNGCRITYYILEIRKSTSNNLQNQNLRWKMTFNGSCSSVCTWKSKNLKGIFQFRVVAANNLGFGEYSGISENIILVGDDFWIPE

Assay [1] has as its target C-terminally 6×His-tagged recombinant human NELL2 protein (human) (UniProt Q99435).
For assay [2], the target named is T1, C-terminally 6×His-tagged human NICOL protein (human) (UniProt Q5BLP8).
T1 sequence: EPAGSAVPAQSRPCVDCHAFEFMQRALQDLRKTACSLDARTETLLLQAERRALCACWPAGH

Assay [3] addresses bovine serum albumin (BSA) (bovine) (UniProt P02769).

These are yes or no findings as the source states them, for the method shown. Binding seen in cells or lysates may run through a third protein. Some binding calls cover weakened binding; strength is not graded here. For part of these data: Tags and fused reporters may be left off the sequences shown.

For the substance “C-terminally 8xHis and Rho1D4-tagged human ROS1 ectodomain (from UniProt P08922 28-1859) (receptor)”, the results for the binding result in assay [1], in assay [2] and in assay [3] were “binds”, “no binding” and “no binding”, respectively.

The values are drawn from article PMC10759339, “Expression of NELL2/NICOL-ROS1 lumicrine signaling-related molecules in the human male reproductive tract” (Reproductive Biology and Endocrinology : RB&E, 2024).
